From US20100311782A1, “SUBSTITUTED PIPERIDINYLPROPANOIC ACID COMPOUNDS AND METHODS OF THEIR USE” (priority 2009, published 2010)
Where a name gives a salt, the structure may show the parent alone. Read-outs that look alike come from different tables or passages of the source. At least one compound was matched to its structure with a doubt left. Some of these results come from one statement about several compounds together.

Protein sequences, listed by entry. Tags and fused reporters are not part of them.
UniProt P35372, whole entry: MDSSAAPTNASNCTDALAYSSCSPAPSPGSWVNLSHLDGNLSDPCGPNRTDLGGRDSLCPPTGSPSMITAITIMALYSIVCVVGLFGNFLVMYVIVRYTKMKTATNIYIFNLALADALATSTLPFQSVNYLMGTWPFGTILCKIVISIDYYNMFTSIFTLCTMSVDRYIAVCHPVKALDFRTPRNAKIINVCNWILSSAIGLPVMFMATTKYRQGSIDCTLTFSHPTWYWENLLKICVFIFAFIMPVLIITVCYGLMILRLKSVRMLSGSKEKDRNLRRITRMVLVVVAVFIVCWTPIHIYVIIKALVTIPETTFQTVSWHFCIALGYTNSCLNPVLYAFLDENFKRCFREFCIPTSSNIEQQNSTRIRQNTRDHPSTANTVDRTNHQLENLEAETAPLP

Assays:
[1] = target: T1, cloned human μ opioid receptor (Homo sapiens, UniProt P35372); experiment: Receptor binding, [3H]diprenorphine displacement, mu opioid receptor; details: ratio of DOR Ki to MOR Ki
T1 construct: expressed in transfected cells

[2] = target: T1, cloned human μ opioid receptor; experiment: Inhibition of agonist (loperamide)-stimulated [35S]GTPγS binding; type: biochemical
Method: The potencies of the antagonists were assessed by their abilities to inhibit agonist-stimulated [^35S]GTPγS binding to membranes containing the cloned human μ, κ, or δ opioid receptors. The agonist used for the μ opioid receptor was loperamide.
To determine the IC50 value, which was the concentration to give half-maximal inhibition of agonist-stimulated [^35S]GTPγS binding, the amount of [^35S]GTPγS bound in the presence of a fixed concentration of agonist and various concentrations of antagonist was measured. The fixed concentration of agonist was the EC80 for the agonist, which was the concentration to give 80% of the relative maximum stimulation of [^35S]GTPγS binding. The IC50 value was determined from a best nonlinear regression fit of the data to the following equation,
where Y is the amount of [^35S]GTPγS bound at each concentration of antagonist, Bottom is the calculated amount of [^35S]GTPγS bound in the presence of an infinite concentration of antagonist, Top is the calculated amount of [^35S]GTPγS bound in the absence of added antagonist, X is the logarithm of the concentration of antagonist, and LogIC50 is the logarithm of the concentration of antagonist where the amount of [^35S]GTPγS bound is halfway between Bottom and Top. The nonlinear regression fit was performed using GraphPad Prism® version 3.00 for Windows (GraphPad Software, San Diego, Calif.).

C[C@H]1CN(C[C@H](Cc2ccccc2)C(=O)O)CC[C@@]1(C)c1cccc(C(N)=O)c1 [Example 5, (S)-2-benzyl-3-((3R,4R)-4-(3-carbamoylphenyl)-3,4-dimethylpiperidin-1-yl)propanoic acid, oxalic acid salt]
DOR/MOR Ratio [1]: 18

C[C@H]1CN(C[C@@H](Cc2ccccc2)C(=O)NCC(=O)O)CC[C@@]1(C)c1cccc(C(N)=O)c1.O=C(O)C(F)(F)F [Example C-2, [[2(R)-[[4(R)-(3-Amidophenyl)-3(R),4-dimethyl-1-piperidinyl]methyl]-1-oxo-3-phenylpropyl]amino]acetic acid, trifluoromethylacetate salt, reference compound]
IC50 ([2]; in vitro, read-out: IC50 of inhibition of agonist-stimulated [35S]GTPγS binding at the μ receptor): < 100 nM

CC1CN(CC(Cc2ccccc2)C(=O)NCC(=O)O)CCC1(C)c1cccc(C(N)=O)c1 [Example C-3, [[2(R)-[[4(R)-(3-Amidophenyl)-3(R),4-dimethyl-1-piperidinyl]methyl]-1-oxo-3-phenylpropyl]amino]acetic acid, sodium salt, reference compound]
IC50 ([2]; read-out: IC50 of inhibition of agonist-stimulated [35S]GTPγS binding at the μ receptor, in vitro): < 100 nM
